In the supplement of paper PMC6078165:
± gives the standard deviation of the averaged measurements. The reference is the same well before dosing, and untreated signal decays as well.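 Fibroblast labels denote human fibroblasts, mainly primary ones from uterus (C12385, HUF), lung (H6013), bone (Hs27A), adrenal (HADF) and skin (WS1), plus mammary HMF and breast cancer-associated Hs343T. Cancer cells are basal-like or mesenchymal-like triple-negative breast cancer lines. A hit is a response shift exceeding 3x replicate standard deviation. The tissue of the other fibroblasts is not given here.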

Test system: BT20
Assay: relative JC-1 red fluorescence (viability) vs pre-drug, coculture with fibroblast (fraction); higher = more viable cancer cells
Details: 10 µM
Experimental: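 JC-1 labelled TNBC cells cocultured 1:1 (1,500 cells each) with CellTrace Violet stained primary or stromal fibroblasts in 384-well plates in FluoroBrite medium, treated with one of 42 anticancer drugs at 0.1, 1, 10 or 100 uM. JC-1 red fluorescence (mitochondrial integrity in cancer cells only) was read by plate reader every 8 h for 72 h. Values are normalised to each well's pre-drug value. The stock of one drug was tenfold lower, so its dose labels may be too high.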

C=C1C[C@@H]2[C@H](CC[C@]3(C)C(=O)CC[C@@H]23)[C@@]2(C)C=CC(=O)C=C12 [Exemestane]
relative JC-1 red fluorescence
Details	8 h	16 h	24 h	32 h	40 h	48 h	56 h	64 h	72 h
coculture fibroblast: C12385	0.906 ± 0.016	0.8466 ± 0.0079	0.796 ± 0.035	0.743 ± 0.033	0.709 ± 0.051	0.682 ± 0.057	0.656 ± 0.065	0.625 ± 0.068	0.601 ± 0.07
coculture fibroblast: H6013	0.89 ± 0.13	0.837 ± 0.092	0.849 ± 0.046	0.858 ± 0.012	0.887 ± 0.069	0.791 ± 0.037	0.801 ± 0.023	0.752 ± 0.067	0.7768 ± 0.0062
coculture fibroblast: H6019	0.8674 ± 0.0043	0.811 ± 0.019	0.813 ± 0.052	0.773 ± 0.063	0.73 ± 0.068	0.728 ± 0.086	0.699 ± 0.09	0.681 ± 0.089	0.669 ± 0.083
coculture fibroblast: H6076	0.9991 ± 0.0013	0.908 ± 0.017	0.836 ± 0.019	0.80987 ± 0.00018	0.7781 ± 0.0045	0.7565 ± 0.0015	0.744 ± 0.015	0.741 ± 0.016	0.722 ± 0.013
coculture fibroblast: H6231	0.866 ± 0.046	0.9318 ± 0.0021	0.8369 ± 0.0071	0.7707 ± 0.0043	0.7126 ± 0.0049	0.6516 ± 0.0018	0.59489 ± 0.0005	0.552 ± 0.019	0.502 ± 0.019
coculture fibroblast: HADF	0.941 ± 0.069	0.948 ± 0.038	0.879 ± 0.018	0.8635 ± 0.0022	0.8383 ± 0.0055	0.7978 ± 0.0079	0.7895 ± 0.0015	0.7748 ± 0.0053	0.735 ± 0.0079
coculture fibroblast: HCFa	0.978 ± 0.011	0.892 ± 0.021	0.834 ± 0.029	0.807 ± 0.032	0.767 ± 0.042	0.729 ± 0.032	0.689 ± 0.051	0.669 ± 0.043	0.615 ± 0.046
coculture fibroblast: HCPF	0.927 ± 0.0067	0.957 ± 0.057	0.869 ± 0.047	0.8 ± 0.033	0.742 ± 0.016	0.696 ± 0.011	0.65577 ± 0.00034	0.634 ± 0.0078	0.593 ± 0.015
coculture fibroblast: HHSteC	0.958 ± 0.013	0.879 ± 0.016	0.865 ± 0.046	0.806 ± 0.043	0.759 ± 0.052	0.73 ± 0.048	0.692 ± 0.043	0.671 ± 0.043	0.63 ± 0.044
coculture fibroblast: HMF	0.902 ± 0.12	0.9103 ± 0.0047	0.8097 ± 0.0072	0.7354 ± 0.0023	0.681 ± 0.017	0.635 ± 0.018	0.591 ± 0.023	0.565 ± 0.026	0.522 ± 0.025
coculture fibroblast: HPFa	0.891 ± 0.017	0.947 ± 0.055	0.827 ± 0.12	0.9575 ± 0.0054	0.938 ± 0.014	0.887 ± 0.027	0.853 ± 0.04	0.81 ± 0.058	0.744 ± 0.062
coculture fibroblast: HUF	0.9506 ± 0.0084	0.888 ± 0.036	0.861 ± 0.067	0.783 ± 0.091	0.759 ± 0.12	0.726 ± 0.14	0.712 ± 0.15	0.698 ± 0.17	0.682 ± 0.17
coculture fibroblast: Hs5	0.78 ± 0.036	0.842 ± 0.14	0.901 ± 0.054	0.85 ± 0.053	0.792 ± 0.053	0.754 ± 0.059	0.707 ± 0.053	0.674 ± 0.051	0.638 ± 0.057
coculture fibroblast: Hs27A	0.848 ± 0.051	0.806 ± 0.16	0.845 ± 0.091	0.804 ± 0.026	0.804 ± 0.12	0.745 ± 0.029	0.873 ± 0.071	0.957 ± 0.046	0.889 ± 0.036
coculture fibroblast: Hs343T	0.913 ± 0.068	0.881 ± 0.025	0.7799 ± 0.0049	0.72017 ± 0.00063	0.65617 ± 7.2e-05	0.6094 ± 0.003	0.539 ± 0.018	0.503 ± 0.0072	0.439 ± 0.008
coculture fibroblast: WS1	0.894 ± 0.012	0.8634 ± 0.0059	0.814 ± 0.042	0.764 ± 0.053	0.721 ± 0.059	0.692 ± 0.061	0.655 ± 0.064	0.622 ± 0.067	0.599 ± 0.069
